The target in this test is T1, Serum responsive factor (SRF) (mouse (endogenous in hippocampus)) (UniProt Q9JM73).
T1 sequence: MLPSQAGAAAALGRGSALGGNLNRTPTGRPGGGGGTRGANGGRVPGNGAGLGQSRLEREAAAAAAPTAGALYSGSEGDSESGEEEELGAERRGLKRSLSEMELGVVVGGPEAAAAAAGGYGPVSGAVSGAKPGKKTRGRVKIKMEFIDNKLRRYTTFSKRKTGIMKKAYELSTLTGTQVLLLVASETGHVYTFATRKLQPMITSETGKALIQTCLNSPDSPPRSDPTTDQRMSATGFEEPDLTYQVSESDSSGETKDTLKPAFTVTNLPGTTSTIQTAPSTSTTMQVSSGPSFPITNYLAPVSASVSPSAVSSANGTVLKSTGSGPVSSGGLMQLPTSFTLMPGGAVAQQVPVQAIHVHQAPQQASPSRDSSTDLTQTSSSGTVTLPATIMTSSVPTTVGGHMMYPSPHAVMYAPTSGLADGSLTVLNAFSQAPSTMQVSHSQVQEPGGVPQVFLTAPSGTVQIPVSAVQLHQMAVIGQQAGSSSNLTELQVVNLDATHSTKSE
Briefly: co-IP; IP of SRF from hippocampal extracts; Western blot with HOP antibody.

One molecule from article PMC2416439 can be followed below.

These are yes or no findings as the source states them, for the method shown. Binding seen in cells or lysates may run through a third protein. Some results given as binding are weak or reduced against the parent protein; the word gives no strength.

B1: HOP (Homeodomain only protein) (protein, UniProt Q8R1H0 1-73)
chain: MSAQTASGPTEDQVEILEYNFNKVNKHPDPTTLCLIAAEAGLTEEQTQKWFKQRLAEWRRSEGLPSECRSVTD
In the case of B1, the binding result is reported as “binds”.
